Patent publication US8178577B2, “Tricyclic derivatives as potent and selective histone deacetylase inhibitors” (Shenzhen Chipscreen Biosciences Ltd., priority 2008, dated 2012)
At least one structure is not confirmed: it was looked up by name or label, or the drawing left a doubt.

Tested on: total HDAC enzyme
Assay: In vitro inhibition of total HDAC enzyme activity (BIOMOL HDAC Fluorimetric Assay/Drug Discovery Kit, HeLa extract)
Type: biochemical
Description: Measurement of In Vitro Inhibition of Total HDAC Enzyme Activity:
The in vitro inhibition of total HDAC enzyme was determined by HDAC Fluorimetric Assay/Drug Discovery Kit (BIOMOL) according to manufacture's instruction. • 1. Add Assay buffer, diluted trichostatin A or test inhibitor to appropriate wells of the microtiter plate. Following table lists examples of various assay types and the additions required for each test.
• 2. Add diluted HeLa extract or other HDAC sample to all wells except those that are to be “No Enzyme Controls” (Blank). • 3. Allow diluted Fluor de LYS™ Substrate and the samples in the microtiter plate to equilibrate to assay temperature (25° C.). • 4. Initiate HDAC reactions by adding diluted substrate (25 μl) to each well and mixing thoroughly. • 5. Allow HDAC reactions to proceed for desired length of time and then stop them by addition of Fluor de Lys™ Developer (50 μl). Incubate plate at room temperature (25° C.) for 10-15 min. • 6. Read samples in a microtiter-plate reading fluorimeter capable of excitation at a wavelength in the range 350-380 nm and detection of emitted light in the range 440-460 nm. Measurement of In Vivo Inhibition of HDAC Subtype Activity: […]

Compound: Nc1cc(Cl)ccc1NC(=O)CCCCCNC(=O)C=C1c2ccccc2-c2ccccc21 [Example 14, 6-(2-(9H-fluoren-9-ylidene)acetamido)-N-(2-amino-4-chlorophenyl)hexanamide]
- % of Inhibition on total HDAC enzyme at 30 μM: 38.2%
